Results from PubChem BioAssay AID256 (DTP/NCI, 2004).
The list is a part of this screen's results and no random one: it is rich in T/C values a quarter to a half above the control, in often repeated tests (any T/C) and in doses without a T/C. Other doses and runs of a compound stand elsewhere. T/C: endpoint of the treated group in % of that of the vehicle group. Some doses have a count of surviving animals in place of a T/C: the source files T/C as zero there, which appears to mark a toxic dose or a test without result, not a measured value. Some survivor counts are full or nearly so, which does not show that the dose was tolerated: survival well below the control is almost never listed, so the zero probably covers shortened survival too. Survivors were counted at the toxicity check, usually on the fifth day, unless a day is given; later deaths do not show. Schedules are NCI's codes, read here as Q, the interval in days (D) or hours (H), X, the number of doses. Some doses were run more than once; their values stand side by side, smallest first. For survival time, this PubChem deposit counts one and a half times the control or more as active, and values a quarter to a half above the control carry no call in these data; other NCI protocols may use other cut-offs. Signs of the kind (2×) stand for listed records that agree. Some T/C values are followed by the survivors on the day toxicity was checked, most often the fifth; where none is given, no animal had died by that day.

Tested on: CD2F1 mice, L1210 leukemia ip, survival T/C
Assay: NCI In Vivo Anticancer Drug Screen. Data for tumor model L1210 Leukemia (intraperitoneal) in CD2F1 (CDF1) mice
Conditions: higher T/C = longer survival
How it was run: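 Vehicle-treated tumor-bearing mice served as controls (C) for compound-treated mice (T). Reported figure is T divided by C.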

[1] = T/C endpoint: mean survival time, dose: 400.0 mg/kg/injection, schedule: Q01DX001 (ip), vehicle: saline with Tween-80
[2] = T/C endpoint: mean survival time, dose: 400.0 mg/kg/injection, schedule: Q04DX003 (ip), vehicle: saline with Tween-80

**Q.** Which results are given for `CN1N=C(N)c2cn(C3OC(COP(=O)(O)O)C(O)C3O)c3ncnc1c23` (stereo not drawn)?
**A.** T/C (T/C endpoint: mean survival time, dose: 6.25 mg/kg/injection, schedule: Q01DX009 (ip), vehicle: water): 125 % of control; T/C (T/C endpoint: mean survival time, dose: 7.81 mg/kg/injection, schedule: Q01DX009 (ip), vehicle: water): 126 and 132 % of control; T/C (T/C endpoint: mean survival time, dose: 10.0 mg/kg/injection, schedule: Q01DX005 (ip), vehicle: water): 147 % of control; T/C (T/C endpoint: mean survival time, dose: 11.73 mg/kg/injection, schedule: Q01DX009 (ip), vehicle: water): 132 % of control (2×); T/C (T/C endpoint: mean survival time, dose: 12.5 mg/kg/injection, schedule: Q01DX009 (ip), vehicle: water): 134 % of control; T/C (T/C endpoint: mean survival time, dose: 15.63 mg/kg/injection, schedule: Q01DX009 (ip), vehicle: water): 125 and 134 % of control; T/C (T/C endpoint: mean survival time, dose: 20.0 mg/kg/injection, schedule: Q01DX005 (ip), vehicle: water): 147 % of control; T/C (T/C endpoint: mean survival time, dose: 23.45 mg/kg/injection, schedule: Q01DX009 (ip), vehicle: water): 134 % of control; T/C (T/C endpoint: mean survival time, dose: 25.0 mg/kg/injection, schedule: Q01DX009 (ip), vehicle: water): 134 and 140 % of control; T/C (T/C endpoint: mean survival time, dose: 31.25 mg/kg/injection, schedule: Q01DX005 (iv), vehicle: water): 130 % of control; T/C (T/C endpoint: mean survival time, dose: 31.25 mg/kg/injection, schedule: Q01DX009 (ip), vehicle: water): 141 % of control; T/C (T/C endpoint: mean survival time, dose: 50.0 mg/kg/injection, schedule: Q01DX009 (ip), vehicle: water): 137 and 149 % of control [5 of 6 alive]; T/C (T/C endpoint: mean survival time, dose: 62.5 mg/kg/injection, schedule: Q01DX009 (ip), vehicle: water): 143 % of control; survivor count (T/C endpoint: mean survival time, dose: 160.0 mg/kg/injection, schedule: Q01DX005 (ip), vehicle: water): 0 of 8 and 2 of 8; survivor count (T/C endpoint: mean survival time, dose: 200.0 mg/kg/injection, schedule: Q01DX009 (ip), vehicle: water): 0 of 6; T/C (T/C endpoint: median survival time, dose: 6.25 mg/kg/injection, schedule: Q03HX008 (ip), vehicle: alkali diluted with water): 140 % of control [8 of 10 alive]; T/C (T/C endpoint: median survival time, dose: 12.5 mg/kg/injection, schedule: Q03HX008 (ip), vehicle: alkali diluted with water): 149 % of control [9 of 10 alive]; T/C (T/C endpoint: median survival time, dose: 24.0 mg/kg/injection, schedule: Q01DX005 (iv), vehicle: water): 142 % of control; survivor count (T/C endpoint: median survival time, dose: 25.0 mg/kg/injection, schedule: Q03HX008 (ip), vehicle: alkali diluted with water): 0 of 10; survivor count (T/C endpoint: median survival time, dose: 25.0 mg/kg/injection, schedule: Q03HX024 (ip), vehicle: alkali diluted with water): 0 of 10; T/C (T/C endpoint: median survival time, dose: 35.0 mg/kg/injection, schedule: Q01DX005 (ip), vehicle: water): 148 % of control; T/C (T/C endpoint: median survival time, dose: 35.0 mg/kg/injection, schedule: Q01DX005 (iv), vehicle: water): 148 % of control; survivor count (T/C endpoint: median survival time, dose: 50.0 mg/kg/injection, schedule: Q03HX008 (ip), vehicle: alkali diluted with water): 0 of 10; survivor count (T/C endpoint: median survival time, dose: 50.0 mg/kg/injection, schedule: Q03HX024 (ip), vehicle: alkali diluted with water): 0 of 10; T/C (T/C endpoint: median survival time, dose: 53.0 mg/kg/injection, schedule: Q01DX001 (iv), vehicle: water): 130 % of control; T/C (T/C endpoint: median survival time, dose: 53.0 mg/kg/injection, schedule: Q01DX005 (ip), vehicle: water): 147 % of control; T/C (T/C endpoint: median survival time, dose: 80.0 mg/kg/injection, schedule: Q01DX001 (ip), vehicle: water): 126 % of control; T/C (T/C endpoint: median survival time, dose: 80.0 mg/kg/injection, schedule: Q01DX001 (iv), vehicle: water): 130 % of control; survivor count (T/C endpoint: median survival time, dose: 100.0 mg/kg/injection, schedule: Q03HX008 (ip), vehicle: alkali diluted with water): 0 of 10; survivor count (T/C endpoint: median survival time, dose: 100.0 mg/kg/injection, schedule: Q03HX024 (ip), vehicle: alkali diluted with water): 0 of 10; T/C (T/C endpoint: median survival time, dose: 120.0 mg/kg/injection, schedule: Q01DX001 (ip), vehicle: water): 127 % of control; T/C (T/C endpoint: median survival time, dose: 120.0 mg/kg/injection, schedule: Q01DX001 (iv), vehicle: water): 136 % of control [9 of 10 alive]; survivor count (T/C endpoint: median survival time, dose: 120.0 mg/kg/injection, schedule: Q01DX005 (iv), vehicle: water): 2 of 10; survivor count (T/C endpoint: median survival time, dose: 180.0 mg/kg/injection, schedule: Q01DX001 (ip), vehicle: water): 5 of 10; survivor count (T/C endpoint: median survival time, dose: 180.0 mg/kg/injection, schedule: Q01DX001 (iv), vehicle: water): 1 of 10; survivor count (T/C endpoint: median survival time, dose: 180.0 mg/kg/injection, schedule: Q01DX005 (ip), vehicle: water): 3 of 10; survivor count (T/C endpoint: median survival time, dose: 180.0 mg/kg/injection, schedule: Q01DX005 (iv), vehicle: water): 0 of 10; survivor count (T/C endpoint: median survival time, dose: 180.0 mg/kg/injection, schedule: Q01DX009 (ip), vehicle: water): 1 of 10; T/C (T/C endpoint: median survival time, dose: 200.0 mg/kg/injection, schedule: Q01DX001 (ip), vehicle: alkali diluted with water): 130 % of control [9 of 10 alive]; survivor count (T/C endpoint: median survival time, dose: 200.0 mg/kg/injection, schedule: Q01DX009 (ip), vehicle: alkali diluted with water): 2 of 10; survivor count (T/C endpoint: median survival time, dose: 270.0 mg/kg/injection, schedule: Q01DX001 (ip), vehicle: water): 0 of 10; survivor count (T/C endpoint: median survival time, dose: 270.0 mg/kg/injection, schedule: Q01DX001 (iv), vehicle: water): 0 of 10; survivor count (T/C endpoint: median survival time, dose: 400.0 mg/kg/injection, schedule: Q01DX001 (ip), vehicle: alkali diluted with water): 4 of 10; survivor count (T/C endpoint: median survival time, dose: 400.0 mg/kg/injection, schedule: Q01DX009 (ip), vehicle: alkali diluted with water): 0 of 10; survivor count (T/C endpoint: median survival time, dose: 400.0 mg/kg/injection, schedule: Q04DX003 (ip), vehicle: alkali diluted with water): 4 of 10

**Q.** Which survivor count [1] does the source give for `COc1ccccc1-n1c(O)c(N=Nc2ccccc2)c(=O)n(-c2ccccc2OC)c1=S` here?
**A.** Its survivor count is 2 of 6.

**Q.** `CC(=O)OCC1OC(N2CN=C(N)NC2=O)C(OC(C)=O)C1OC(C)=O` (stereo not drawn) was tested. Which T/C (T/C endpoint: mean survival time, dose: 3.12 mg/kg/injection, schedule: Q01DX009 (ip), vehicle: saline) did it give?
**A.** Its T/C is 127 % of control.

**Q.** And the T/C (T/C endpoint: mean survival time, dose: 6.25 mg/kg/injection, schedule: Q01DX009 (ip), vehicle: saline)?
**A.** Its T/C is 125 % of control.

**Q.** What about the T/C (T/C endpoint: mean survival time, dose: 25.0 mg/kg/injection, schedule: Q01DX009 (ip), vehicle: saline) of the same compound?
**A.** Its T/C is 131 and 145 % of control.

**Q.** For `Cc1cc(SCc2ccccc2)cc(C)[o+]1`, which survivor count (T/C endpoint: mean survival time, dose: 300.0 mg/kg/injection, schedule: Q01DX001 (ip), vehicle: saline) is on record?
**A.** The survivor count was 0 of 6.

**Q.** Which results are given for `O=C(O)c1ccc(Cl)cc1Nc1ccc(O)cc1`?
**A.** survivor count (T/C endpoint: mean survival time, dose: 200.0 mg/kg/injection, schedule: Q04DX002 (ip), vehicle: saline with Tween-80): 0 of 3; survivor count (T/C endpoint: mean survival time, dose: 400.0 mg/kg/injection, schedule: Q04DX002 (ip), vehicle: saline with Tween-80): 0 of 3

**Q.** How did the survivor count (T/C endpoint: mean survival time, dose: 200.0 mg/kg/injection, schedule: Q04DX003 (ip), vehicle: saline with Tween-80) turn out when `O=S(=O)(O)SCC1=NCCCCN1` was run?
**A.** The survivor count was 0 of 6.

**Q.** And the survivor count [2]?
**A.** Its survivor count is 0 of 6.

**Q.** How did the survivor count (T/C endpoint: mean survival time, dose: 12.5 mg/kg/injection, schedule: Q01DX001 (ip), vehicle: saline with Tween-80) turn out when `N#C[Se]C[Se]C#N` was run?
**A.** Its survivor count is 2 of 6.

**Q.** What about the survivor count (T/C endpoint: mean survival time, dose: 25.0 mg/kg/injection, schedule: Q01DX001 (ip), vehicle: saline with Tween-80) of the same compound?
**A.** Its survivor count is 0 of 6.

**Q.** And the survivor count (T/C endpoint: mean survival time, dose: 100.0 mg/kg/injection, schedule: Q01DX001 (ip), vehicle: saline with Tween-80)?
**A.** The survivor count was 0 of 6.

**Q.** And the survivor count (T/C endpoint: mean survival time, dose: 200.0 mg/kg/injection, schedule: Q01DX001 (ip), vehicle: saline with Tween-80)?
**A.** Its survivor count is 0 of 6.

**Q.** And the survivor count [1]?
**A.** Its survivor count is 0 of 6.

**Q.** `NC(=O)c1cc(N2CC2)c([N+](=O)[O-])cc1[N+](=O)[O-]` was tested. Which survivor count (T/C endpoint: mean survival time, dose: 100.0 mg/kg/injection, schedule: Q01DX009 (ip), vehicle: saline with Tween-80) did it give?
**A.** The survivor count was 2 of 6.

**Q.** Which survivor count [2] does the source give for `O=C(O)c1c(F)c(F)c2c(F)c(F)c(F)c(F)c2c1F` here?
**A.** Its survivor count is 1 of 6.

**Q.** Which results are given for `CC1CCc2ccccc2N1CCN` (stereo not drawn)?
**A.** survivor count (T/C endpoint: mean survival time, dose: 200.0 mg/kg/injection, schedule: Q04DX003 (ip), vehicle: Klucel (hydroxypropylcellulose) (HPC)): 1 of 6; survivor count (T/C endpoint: mean survival time, dose: 400.0 mg/kg/injection, schedule: Q04DX003 (ip), vehicle: Klucel (hydroxypropylcellulose) (HPC)): 1 of 6

**Q.** `NC(=O)COc1ccc(Cl)cc1Cl` was tested. Which survivor count (T/C endpoint: mean survival time, dose: 400.0 mg/kg/injection, schedule: Q01DX009 (ip), vehicle: saline with Tween-80) did it give?
**A.** Its survivor count is 0 of 6.

**Q.** With `CC[N+](C)(CC)Cc1cc(C(C)=O)c(C)o1` as the compound, how does the survivor count (T/C endpoint: median survival time, dose: 100.0 mg/kg/injection, schedule: Q04DX002 (ip), vehicle: saline) read?
**A.** Its survivor count is 3 of 3.

**Q.** What about the survivor count (T/C endpoint: median survival time, dose: 200.0 mg/kg/injection, schedule: Q04DX002 (ip), vehicle: saline) of the same compound?
**A.** The survivor count was 0 of 3.

**Q.** And the survivor count (T/C endpoint: median survival time, dose: 400.0 mg/kg/injection, schedule: Q04DX002 (ip), vehicle: saline)?
**A.** The survivor count was 0 of 3.

**Q.** With `CC(=O)c1c(C)c2c(C)cc3oc(=O)c(C(C)=O)c(C)c3c2oc1=O` as the compound, how does the survivor count (T/C endpoint: mean survival time, dose: 100.0 mg/kg/injection, schedule: Q04DX002 (ip), vehicle: saline with Tween-80) read?
**A.** Its survivor count is 3 of 3.
